Source: PMC9243202
Read-outs that look alike come from different tables or passages of the source. These are yes or no findings as the source states them, for the method shown. Binding seen in cells or lysates may run through a third protein. A yes stands for co-enrichment or nearness to the bait. Other partners may have been found.

Amino acid sequences for entries named in this document (tags omitted).
UniProt Q96IY1: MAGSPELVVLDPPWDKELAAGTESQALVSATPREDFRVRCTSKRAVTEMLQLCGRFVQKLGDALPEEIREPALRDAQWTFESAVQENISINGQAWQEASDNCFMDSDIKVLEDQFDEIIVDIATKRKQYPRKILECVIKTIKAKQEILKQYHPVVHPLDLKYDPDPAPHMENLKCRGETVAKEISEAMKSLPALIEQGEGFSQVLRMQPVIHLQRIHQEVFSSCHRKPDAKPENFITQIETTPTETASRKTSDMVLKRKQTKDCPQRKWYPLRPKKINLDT
UniProt Q9H081: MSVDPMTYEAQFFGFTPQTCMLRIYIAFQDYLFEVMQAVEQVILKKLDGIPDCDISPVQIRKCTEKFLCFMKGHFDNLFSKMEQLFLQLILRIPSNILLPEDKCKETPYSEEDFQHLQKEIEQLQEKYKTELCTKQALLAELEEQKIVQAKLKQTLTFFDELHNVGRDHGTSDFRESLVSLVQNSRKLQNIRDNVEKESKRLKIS

B1: RB1 (protein, UniProt P06400 1-928)
chain: MPPKTPRKTAATAAAAAAEPPAPPPPPPPEEDPEQDSGPEDLPLVRLEFEETEEPDFTALCQKLKIPDHVRERAWLTWEKVSSVDGVLGGYIQKKKELWGICIFIAAVDLDEMSFTFTELQKNIEISVHKFFNLLKEIDTSTKVDNAMSRLLKKYDVLFALFSKLERTCELIYLTQPSSSISTEINSALVLKVSWITFLLAKGEVLQMEDDLVISFQLMLCVLDYFIKLSPPMLLKEPYKTAVIPINGSPRTPRRGQNRSARIAKQLENDTRIIEVLCKEHECNIDEVKNVYFKNFIPFMNSLGLVTSNGLPEVENLSKRYEEIYLKNKDLDARLFLDHDKTLQTDSIDSFETQRTPRKSNLDEEVNVIPPHTPVRTVMNTIQQLMMILNSASDQPSENLISYFNNCTVNPKESILKRVKDIGYIFKEKFAKAVGQGCVEIGSQRYKLGVRLYYRVMESMLKSEEERLSIQNFSKLLNDNIFHMSLLACALEVVMATYSRSTSQNLDSGTDLSFPWILNVLNLKAFDFYKVIESFIKAEGNLTREMIKHLERCEHRIMESLAWLSDSPLFDLIKQSKDREGPTDHLESACPLNLPLQNNHTAADMYLSPVRSPKKKGSTTRVNSTANAETQATSAFQTQKPLKSTSLSLFYKKVYRLAYLRLNTLCERLLSEHPELEHIIWTLFQHTLQNEYELMRDRHLDQIMMCSMYGICKVKNIDLKFKIIVTAYKDLPHAVQETFKRVLIKEEEYDSIIVFYNSVFMQRLKTNILQYASTRPPTLSPIPHIPRSPYKFPSSPLRIPGGNIYISPLKSPYKISEGLPTPTKMTPRSRILVSIGESFGTSEKFQKINQMVCNSDRVLKRSAEGSNPPKPLKKLRFDIEGSDEADGSKHLPGESKFQQKLAEMTSTRTRMQKQKMNDSMDTSNKEEK

Assays:
[1] = target: FLAG-tagged FTO (fat mass of obesity-associated protein) (UniProt Q9C0B1); assay: affinity purification with mass spectrometry; FLAG-tagged FTO ectopically expressed in HEK293T cells; co-IP with an anti-FLAG antibody, followed by LC-MS/MS
[2] = target: FLAG-tagged FTO (fat mass of obesity-associated protein) (UniProt Q9C0B1); assay: as above; remark: listed apart in the source

binding [1] | binding [2] | Molecule
binds | – | NSL1 (from UniProt Q96IY1 1-281)
binds | – | MIS12 (from UniProt Q9H081 1-205)
– | binds | B1
